Experimental data reported in PubChem BioAssay AID504467 (National Center for Advancing Translational Sciences (NCATS), 2011).
About 7,700 (2.3%) of roughly 330,000 compounds were called active. The shares of active, inactive and inconclusive entries below differ from those in the screen. The call rests on the fitted dose curve; in most records, active means well fitted inhibition curve with a large enough effect; inconclusive means small, poorly fitted or top-dose-only effect, or effect the other way; inactive means flat fitted curve, though single readings scatter. Potencies of inconclusive entries are doubtful fits and often do not repeat.

assay: qHTS screen for small molecules that inhibit ELG1-dependent DNA repair in human embryonic kidney (HEK293T) cells expressing luciferase-tagged ELG1; conditions: HEK293T ELG1-luciferase reporter, luminescence, 16 h, DNA damage induced by 5-fluorouridine; activity change, negative = inhibition: at 46.1 µM (top of the series); further: nearly all actives have a fitted effect of over 55% in size
Method in brief: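 5-Fluorouridine DNA damage + compound/DMSO, 2,000 cells/well, 16 h, 37 °C/5% CO2. ONE-Glo, 30 min RT, luminescence. Readout = decrease in reporter signal.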
On the % scale 0 is the no-effect control and ±100 the full control effect; potency means the concentration at half of the fitted maximal effect.

Compound | Potency | activity change, negative = inhibition
COc1ccc(NS(=O)(=O)c2ccc3oc(Nc4ccc5c(c4)OCCO5)nc3c2)cc1 | inconclusive: 29.1 µM [inhibitor, single point] | 
Cc1[nH]c2ccccc2c1CCN(Cc1cccs1)C(=S)Nc1ccccc1 | inconclusive: 29.1 µM [inhibitor, single point] | 
COc1ccc(OC)c(CC(=O)Nc2ccc3c(c2)CCC3)c1 |  | inactive: -19.9%
COC(=O)c1ccc(N2C(=O)CC(SCCN)C2=O)cc1 (stereo unspecified) | inconclusive: 18.4 µM [activator, partial curve] | 
COc1ccc(S(=O)(=O)N2CCOC2CNC(=O)C(=O)NCCCc2ccccc2)cc1 (stereo unspecified) | inconclusive: 23.1 µM [inhibitor, partial curve, poor fit] | 
CCCc1cc(C(=O)Nc2cc(Br)ccc2O)no1 | inconclusive: 18.4 µM [activator, partial curve, poor fit] | 
O=S(=O)([O-])CCC[N+]1(CC#Cc2ccccc2)CCCCC1 |  | inactive: -17.3%
Cc1cc(NC(=O)CSc2nc(C(C)C)nc3sc(C)c(C)c23)no1 |  | inactive: 3.43%
O=S(=O)(CCc1nnc(-c2ccc(Br)cc2)o1)c1ccc(Cl)cc1 | inconclusive: 29.1 µM [activator, single point] | 
CC(C)Oc1ccc(/C=C(\NC(=O)/C=C/c2ccco2)C(=O)NCCc2nc3ccccc3[nH]2)cc1 | inconclusive: 20.6 µM [inhibitor, partial curve] | 
COc1ccccc1/C=N/NC(=O)CC(=O)NCc1ccccc1 | inconclusive: 6.51 µM [inhibitor, single point] | 
CCCc1cc(C(=O)OC)c(NC(=O)c2cc(C)on2)s1 | inconclusive: 23.1 µM [inhibitor, partial curve, poor fit] | 
Cc1nn(-c2ccccc2)c(C)c1-c1nnc(-c2c(C)nn(-c3ccccc3)c2C)o1 |  | inactive: 0%
CC(C)CCn1cnc2c1c(=O)n(CC(=O)NC(N)=O)c(=O)n2Cc1ccccc1 |  | inactive: 0.175%
O=C(Nc1ccc(-c2nnc3n2CCCCC3)cc1)c1cc2ccccc2o1 | inconclusive: 20.6 µM [inhibitor, single point] | 
O=C(Nc1ccc(OC(=O)c2cccs2)cc1)c1ccco1 | inconclusive: 20.6 µM [activator, single point] | 
CC(C)(C)NC(=S)NNC(=O)c1ccc2ncccc2c1 | inconclusive: 14.6 µM [activator, partial curve] | 
Cc1cc(C)c(C#N)c(SCCS(=O)(=O)c2ccc(C(C)(C)C)cc2)n1 |  | inactive: -1.56%
COc1cccc(/C=N/NC(=O)CNC(=O)COc2cccc(C)c2)c1O | inconclusive: 7.3 µM [inhibitor, partial curve, poor fit] | 
CCC(=O)NC(Nc1c(C)n(C)n(-c2ccccc2)c1=O)C(Cl)(Cl)Cl (stereo unspecified) |  | inactive: -0.661%
CC1(C)Cc2c(c(-c3ccco3)nc3sc4c(NCCN5CCOCC5)ncnc4c23)CO1 | inconclusive: 3.66 µM [inhibitor, full curve] | 
CC(Oc1ccc(Cl)cc1Cl)C(=O)/C=C/N(C)C (stereo unspecified) |  | inactive: 2.25%
CCNC(=S)N=Nc1c(O)[nH]c2ccc([N+](=O)[O-])cc12 | inconclusive: 29.1 µM [inhibitor, single point] | 

A different layout for three compounds above:
Compound	Potency	activity change, negative = inhibition
CCC(=O)NC(Nc1c(C)n(C)n(-c2ccccc2)c1=O)C(Cl)(Cl)Cl (stereo unspecified)		inactive: -0.661%
CC1(C)Cc2c(c(-c3ccco3)nc3sc4c(NCCN5CCOCC5)ncnc4c23)CO1	inconclusive: 3.66 µM [inhibitor, full curve]	
CC(Oc1ccc(Cl)cc1Cl)C(=O)/C=C/N(C)C (stereo unspecified)		inactive: 2.25%

Next part.

Compound | Potency | activity change, negative = inhibition
CCc1nc(SCc2ccc(OCC(C)C)cc2)n[nH]1 | inconclusive: 13 µM [activator, single point] | 
Nc1ccccc1CNc1nc(NCCO)nc2c1ncn2CCN1CCOCC1 |  | inactive: 9.84%
COc1cccc(C(=O)NCCSCc2c(F)cccc2Cl)c1 | inconclusive: 31.6 µM [activator, single point] | 
COc1cc(/C=C/C(=O)c2ccc(F)cc2)cc(OC)c1OC | inconclusive: 20.6 µM [inhibitor, single point] | 
CC(C)(C)Cc1nnc(NS(=O)(=O)c2ccc(F)cc2)s1 |  | inactive: -6%
CCOc1ccc(S(=O)(=O)N(CC(=O)O)c2ccc(C)cc2)cc1 |  | inactive: 9.73%
Cc1c(C(=O)O)sc2nc(CSc3ncc(C(F)(F)F)cc3Cl)[nH]c(=O)c12 |  | inactive: 8.94%
CC(C(=O)OCC(=O)Nc1ccc(S(N)(=O)=O)cc1)N1C(=O)c2ccccc2C1=O (stereo unspecified) |  | inactive: 4.24%
O=C(NCCS(=O)(=O)N1CCCC1)c1ccccc1 | inconclusive: 10.3 µM [activator, partial curve] | 
O=C1NN=C(c2ccc(Cl)cc2)CC1c1cccc(Cl)c1 (stereo unspecified) | inconclusive: 18.4 µM [inhibitor, partial curve, poor fit] | 
COc1cc(-c2nnn(CC(=O)NC3CCS(=O)(=O)C3)n2)ccc1OCc1ccccc1 (stereo unspecified) | inconclusive: 16.4 µM [activator, partial curve, poor fit] | 
CN=c1scc(-c2ccc(Br)cc2)n1C |  | inactive: -1.79%
Brc1ccc(OCCCOc2cccc3cccnc23)cc1 | inconclusive: 8.91 µM [activator, partial curve, poor fit] | 
CCn1c(Cc2ccccc2)nnc1SCC(=O)Nc1nnc(-c2ccccc2)s1 | inconclusive: 23.1 µM [activator, single point] | 
CCN(CC)S(=O)(=O)c1ccc(C)c(NC(=O)Cn2c(=O)cnc3ccccc32)c1 | inconclusive: 23.1 µM [inhibitor, single point] | 
Cc1ccc(N2C(=O)C(CN3CCOCC3)C2c2ccccc2)cc1 (stereo unspecified) | inconclusive: 14.6 µM [inhibitor, partial curve] | 
COc1cccc(/C=N/Nc2cc(-n3nc(C)cc3-c3ccccc3)ncn2)c1O | active: 5.17 µM | 
COc1ccc2[nH]c(CN3CCN(C(C)C)C(CCO)C3)c(C)c2c1 (stereo unspecified) |  | inactive: 10.2%
CCc1ccc2oc(-c3cc(N)cc(C)c3O)nc2c1 | inconclusive: 4.11 µM [activator, partial curve] | 
O=C(CN1C(=O)COc2ccccc21)NCc1ccc(C(=O)O)cc1 |  | inactive: 4.81%
O=C(/C=C/c1ccccc1)OCCCCN=C1NS(=O)(=O)c2ccccc21 | inconclusive: 29.1 µM [inhibitor, single point] | 
Cc1nn(-c2ccccc2)c(N2CCCC2)c1/C=N/NC(=O)c1cc(-c2cccs2)nc2ccccc12 | active: 14.6 µM | 
Cc1cc(OCC(F)(F)C(F)(F)C(F)(F)C(F)F)nc(N)n1 | inconclusive: 31.6 µM [activator, single point] | 
